Our source for the binding values is patent US20240182582A1.

By UniProt entry, the sequences of proteins in these tests, tags left out. Residues count along the entry.
UniProt O76036, residues 22-120: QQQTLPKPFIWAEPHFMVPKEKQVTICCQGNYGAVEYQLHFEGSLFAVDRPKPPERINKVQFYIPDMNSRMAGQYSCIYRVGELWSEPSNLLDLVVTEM
UniProt P61252, residues 80-216: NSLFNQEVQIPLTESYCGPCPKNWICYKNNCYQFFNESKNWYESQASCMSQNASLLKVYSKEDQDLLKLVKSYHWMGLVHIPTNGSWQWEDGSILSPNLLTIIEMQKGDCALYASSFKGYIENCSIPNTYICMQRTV

One assay concerns the target N46W3 (NKp46 D1) (UniProt O76036). Briefly: binding kinetics to recombinant N46W3.
Assay [1] deals with Cyno NKG2d (NKGW2.001) (cynomolgus monkey) (UniProt P61252). Briefly: ELISA of hybridoma supernatant. On the technique in general: In an ELISA, binding on a coated surface is turned into a signal by an enzyme label.

Results are given in words; binding and its absence hold for the method and conditions named. Some binding calls cover weakened binding; strength is not graded here.

B1: N46B105 (antibody, V domains shown)
VH: QLQLQESGPGPVRPSETLSLTCTVSGDSIRSSSYYWGWIRQPPGKGLDWIGSIYYTGSTYYNPSLMSRVTISVDTSKNQFSLKLSSVTAADTAVYYCASPGYSSGWSIDYWGQGTLVTVSS
VL: DIQLTQSPSFLSASVGDRVTITCRASQGISSYLAWYQQKPGKAPKLLIYVASTLQSGVPSRFSGSGSGTEFTLTISSLQPEDFATYYCQQLNSYPRMTFGGGTKVEIK
As for B1, the binding result in the assay with N46W3 (NKp46 D1) was “binds”.

B2: Clone NKGY1_045_F04 (antibody, V domains shown)
VH: EVQLLESGGGLVQPGGSLRLSCAASGFTFSIYAMTWVRQAPGKGLEWVSIISGSGDHTFYADSVKGRFTISRDNSRNTLYLQMDSLRAEDTAVYYCAKEGKWVQLSHFANWGQGTLVTVSS
VL: SYVLTQPPSVSVAPGQTARITCGGNNIGSKSVHWYQQKAGQAPVLVVYDDSDRPSGIPERFSGSNSGNTATLTISRVEAGDEADYYCQVWDGRSDHVVFGGGTKLTVL
In the case of B2, in assay [1], the binding entry was “binds”.
